Source: the supplement of paper PMC10849652
Some of the results follow.

By UniProt entry, the sequences of proteins in these tests, tags left out. Where a name states a change or a piece, a line headed by the entry shows the natural chain unless it says otherwise.
UniProt P22105: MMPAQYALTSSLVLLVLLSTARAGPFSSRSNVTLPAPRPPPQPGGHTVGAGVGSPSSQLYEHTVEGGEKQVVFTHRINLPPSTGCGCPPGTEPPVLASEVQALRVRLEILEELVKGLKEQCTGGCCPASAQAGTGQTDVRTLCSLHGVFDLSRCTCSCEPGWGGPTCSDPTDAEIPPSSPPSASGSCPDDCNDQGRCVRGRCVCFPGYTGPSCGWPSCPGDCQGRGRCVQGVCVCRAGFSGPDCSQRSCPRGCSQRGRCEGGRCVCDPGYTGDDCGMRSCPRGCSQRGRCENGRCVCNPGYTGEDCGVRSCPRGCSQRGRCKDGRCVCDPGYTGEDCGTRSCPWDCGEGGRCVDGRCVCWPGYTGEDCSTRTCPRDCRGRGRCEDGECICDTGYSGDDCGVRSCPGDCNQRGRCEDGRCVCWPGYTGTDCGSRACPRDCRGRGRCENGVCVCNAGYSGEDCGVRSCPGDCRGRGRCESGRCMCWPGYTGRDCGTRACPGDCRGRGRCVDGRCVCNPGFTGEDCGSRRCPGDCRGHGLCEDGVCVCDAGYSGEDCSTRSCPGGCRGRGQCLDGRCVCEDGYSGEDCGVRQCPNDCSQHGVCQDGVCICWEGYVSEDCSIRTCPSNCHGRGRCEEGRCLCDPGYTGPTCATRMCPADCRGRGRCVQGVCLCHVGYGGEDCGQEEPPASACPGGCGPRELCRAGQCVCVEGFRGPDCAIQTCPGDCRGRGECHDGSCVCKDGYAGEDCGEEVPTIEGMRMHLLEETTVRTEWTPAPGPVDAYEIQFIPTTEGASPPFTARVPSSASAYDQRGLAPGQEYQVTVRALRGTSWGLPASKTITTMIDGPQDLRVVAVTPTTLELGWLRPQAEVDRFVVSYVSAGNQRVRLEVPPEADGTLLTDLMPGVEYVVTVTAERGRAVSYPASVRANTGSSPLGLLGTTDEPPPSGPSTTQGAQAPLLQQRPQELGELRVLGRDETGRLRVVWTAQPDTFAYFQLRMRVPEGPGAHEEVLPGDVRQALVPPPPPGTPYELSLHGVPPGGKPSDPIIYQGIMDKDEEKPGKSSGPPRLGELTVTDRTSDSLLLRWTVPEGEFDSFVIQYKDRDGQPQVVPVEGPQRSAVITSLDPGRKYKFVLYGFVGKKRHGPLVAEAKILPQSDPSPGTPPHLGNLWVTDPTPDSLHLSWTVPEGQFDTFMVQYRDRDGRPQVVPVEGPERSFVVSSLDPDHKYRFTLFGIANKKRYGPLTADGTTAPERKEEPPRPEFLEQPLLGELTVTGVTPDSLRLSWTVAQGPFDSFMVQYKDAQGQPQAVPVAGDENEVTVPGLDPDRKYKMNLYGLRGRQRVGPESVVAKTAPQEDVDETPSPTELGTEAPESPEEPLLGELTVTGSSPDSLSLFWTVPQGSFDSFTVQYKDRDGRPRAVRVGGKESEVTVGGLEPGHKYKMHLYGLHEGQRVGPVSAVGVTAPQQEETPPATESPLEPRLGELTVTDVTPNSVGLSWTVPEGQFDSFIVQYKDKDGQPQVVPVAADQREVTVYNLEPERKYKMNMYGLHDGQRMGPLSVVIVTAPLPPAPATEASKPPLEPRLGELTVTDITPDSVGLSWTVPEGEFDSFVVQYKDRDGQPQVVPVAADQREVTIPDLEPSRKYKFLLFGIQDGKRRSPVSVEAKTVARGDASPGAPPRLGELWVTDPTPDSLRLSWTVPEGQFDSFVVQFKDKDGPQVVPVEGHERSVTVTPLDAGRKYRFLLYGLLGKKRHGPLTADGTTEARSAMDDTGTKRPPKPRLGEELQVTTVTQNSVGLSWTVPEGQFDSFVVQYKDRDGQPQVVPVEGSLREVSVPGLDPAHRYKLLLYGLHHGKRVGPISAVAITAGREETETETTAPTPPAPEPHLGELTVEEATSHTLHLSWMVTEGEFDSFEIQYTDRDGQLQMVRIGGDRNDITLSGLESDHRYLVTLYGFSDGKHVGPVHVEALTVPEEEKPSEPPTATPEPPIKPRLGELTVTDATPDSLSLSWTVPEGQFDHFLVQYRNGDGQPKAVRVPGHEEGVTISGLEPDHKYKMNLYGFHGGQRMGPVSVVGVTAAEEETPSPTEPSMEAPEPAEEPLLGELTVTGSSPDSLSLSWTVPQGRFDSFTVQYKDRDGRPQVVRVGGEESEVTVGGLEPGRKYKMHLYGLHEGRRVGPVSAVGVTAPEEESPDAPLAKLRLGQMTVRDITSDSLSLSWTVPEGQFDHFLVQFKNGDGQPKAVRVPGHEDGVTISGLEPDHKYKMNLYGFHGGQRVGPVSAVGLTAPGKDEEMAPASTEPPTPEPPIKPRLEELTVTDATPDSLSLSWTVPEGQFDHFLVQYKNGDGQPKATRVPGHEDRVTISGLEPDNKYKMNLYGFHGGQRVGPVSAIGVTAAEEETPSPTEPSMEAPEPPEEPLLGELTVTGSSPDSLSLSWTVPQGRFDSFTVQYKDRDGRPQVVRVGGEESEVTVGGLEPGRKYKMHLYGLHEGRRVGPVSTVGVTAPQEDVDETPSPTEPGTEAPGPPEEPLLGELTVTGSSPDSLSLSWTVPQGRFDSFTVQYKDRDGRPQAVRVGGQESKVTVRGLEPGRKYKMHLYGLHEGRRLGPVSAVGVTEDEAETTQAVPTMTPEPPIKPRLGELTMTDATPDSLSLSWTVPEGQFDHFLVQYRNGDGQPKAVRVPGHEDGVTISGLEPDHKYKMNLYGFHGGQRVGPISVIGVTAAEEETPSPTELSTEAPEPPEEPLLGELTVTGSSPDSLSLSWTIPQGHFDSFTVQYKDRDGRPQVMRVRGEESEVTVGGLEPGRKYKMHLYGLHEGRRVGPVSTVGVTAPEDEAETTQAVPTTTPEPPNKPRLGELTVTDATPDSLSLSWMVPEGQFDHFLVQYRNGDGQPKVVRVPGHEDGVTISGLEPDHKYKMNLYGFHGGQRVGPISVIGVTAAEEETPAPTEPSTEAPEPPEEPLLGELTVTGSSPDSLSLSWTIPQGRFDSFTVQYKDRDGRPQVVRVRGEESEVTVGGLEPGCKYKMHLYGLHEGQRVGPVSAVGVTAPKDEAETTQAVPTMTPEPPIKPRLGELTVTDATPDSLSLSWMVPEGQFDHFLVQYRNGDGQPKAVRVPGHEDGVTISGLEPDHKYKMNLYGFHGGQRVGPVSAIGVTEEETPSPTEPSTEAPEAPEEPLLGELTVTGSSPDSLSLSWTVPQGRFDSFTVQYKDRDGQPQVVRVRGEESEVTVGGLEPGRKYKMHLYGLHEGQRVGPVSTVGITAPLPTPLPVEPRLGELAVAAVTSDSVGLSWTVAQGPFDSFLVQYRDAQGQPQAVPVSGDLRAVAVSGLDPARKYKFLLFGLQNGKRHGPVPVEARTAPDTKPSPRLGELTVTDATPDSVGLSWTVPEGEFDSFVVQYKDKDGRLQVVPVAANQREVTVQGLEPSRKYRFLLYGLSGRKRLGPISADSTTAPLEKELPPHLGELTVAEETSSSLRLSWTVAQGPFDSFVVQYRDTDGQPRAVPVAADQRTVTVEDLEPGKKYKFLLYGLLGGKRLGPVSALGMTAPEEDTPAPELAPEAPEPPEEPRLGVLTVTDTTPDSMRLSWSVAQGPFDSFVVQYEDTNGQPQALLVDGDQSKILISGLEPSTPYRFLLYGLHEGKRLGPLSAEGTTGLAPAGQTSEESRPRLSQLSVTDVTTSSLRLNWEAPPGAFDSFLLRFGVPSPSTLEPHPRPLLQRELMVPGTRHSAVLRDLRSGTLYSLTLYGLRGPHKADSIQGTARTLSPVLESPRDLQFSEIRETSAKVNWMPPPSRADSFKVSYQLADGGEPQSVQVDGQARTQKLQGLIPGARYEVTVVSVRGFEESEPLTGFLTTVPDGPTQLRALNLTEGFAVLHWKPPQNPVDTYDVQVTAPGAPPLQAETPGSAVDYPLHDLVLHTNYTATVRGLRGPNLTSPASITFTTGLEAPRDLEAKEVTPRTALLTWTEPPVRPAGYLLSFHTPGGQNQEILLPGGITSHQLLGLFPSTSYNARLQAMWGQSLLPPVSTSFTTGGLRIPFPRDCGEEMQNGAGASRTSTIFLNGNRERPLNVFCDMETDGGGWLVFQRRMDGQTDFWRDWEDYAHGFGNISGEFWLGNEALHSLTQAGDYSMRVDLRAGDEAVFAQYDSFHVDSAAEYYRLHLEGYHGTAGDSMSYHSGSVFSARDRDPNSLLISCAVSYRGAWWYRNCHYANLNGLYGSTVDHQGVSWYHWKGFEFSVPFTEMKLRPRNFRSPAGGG
UniProt O75865, whole entry, looked up: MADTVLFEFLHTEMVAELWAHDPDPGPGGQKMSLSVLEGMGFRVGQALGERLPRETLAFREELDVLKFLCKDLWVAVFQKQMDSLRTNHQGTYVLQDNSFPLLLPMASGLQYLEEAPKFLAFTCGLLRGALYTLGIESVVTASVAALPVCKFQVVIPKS
UniProt Q86W33: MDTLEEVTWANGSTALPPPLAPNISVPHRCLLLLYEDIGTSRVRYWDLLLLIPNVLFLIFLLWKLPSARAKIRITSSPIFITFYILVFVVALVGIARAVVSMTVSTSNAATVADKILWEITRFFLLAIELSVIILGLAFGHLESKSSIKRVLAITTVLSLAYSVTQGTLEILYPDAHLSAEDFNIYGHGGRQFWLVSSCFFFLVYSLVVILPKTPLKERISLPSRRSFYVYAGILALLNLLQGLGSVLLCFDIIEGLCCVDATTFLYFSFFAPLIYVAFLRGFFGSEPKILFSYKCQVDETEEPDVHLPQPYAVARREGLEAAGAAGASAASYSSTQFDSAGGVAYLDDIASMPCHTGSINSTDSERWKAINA
UniProt Q14134: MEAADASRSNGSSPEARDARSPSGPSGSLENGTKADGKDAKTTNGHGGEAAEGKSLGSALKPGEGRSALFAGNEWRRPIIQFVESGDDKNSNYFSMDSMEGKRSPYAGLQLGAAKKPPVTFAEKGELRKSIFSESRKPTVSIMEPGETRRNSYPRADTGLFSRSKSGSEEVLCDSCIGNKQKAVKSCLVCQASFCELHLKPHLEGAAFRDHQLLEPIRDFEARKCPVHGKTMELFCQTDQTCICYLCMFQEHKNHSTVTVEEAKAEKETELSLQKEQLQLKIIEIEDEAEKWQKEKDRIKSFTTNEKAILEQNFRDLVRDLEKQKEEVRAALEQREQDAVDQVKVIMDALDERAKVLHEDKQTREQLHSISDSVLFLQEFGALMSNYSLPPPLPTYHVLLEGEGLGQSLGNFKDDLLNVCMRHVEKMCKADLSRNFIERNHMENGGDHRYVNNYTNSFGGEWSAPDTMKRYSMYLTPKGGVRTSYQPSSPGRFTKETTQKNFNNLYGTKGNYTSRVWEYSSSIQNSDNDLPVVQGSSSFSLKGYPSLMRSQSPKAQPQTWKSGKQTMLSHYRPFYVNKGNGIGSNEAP
UniProt Q9UPN9: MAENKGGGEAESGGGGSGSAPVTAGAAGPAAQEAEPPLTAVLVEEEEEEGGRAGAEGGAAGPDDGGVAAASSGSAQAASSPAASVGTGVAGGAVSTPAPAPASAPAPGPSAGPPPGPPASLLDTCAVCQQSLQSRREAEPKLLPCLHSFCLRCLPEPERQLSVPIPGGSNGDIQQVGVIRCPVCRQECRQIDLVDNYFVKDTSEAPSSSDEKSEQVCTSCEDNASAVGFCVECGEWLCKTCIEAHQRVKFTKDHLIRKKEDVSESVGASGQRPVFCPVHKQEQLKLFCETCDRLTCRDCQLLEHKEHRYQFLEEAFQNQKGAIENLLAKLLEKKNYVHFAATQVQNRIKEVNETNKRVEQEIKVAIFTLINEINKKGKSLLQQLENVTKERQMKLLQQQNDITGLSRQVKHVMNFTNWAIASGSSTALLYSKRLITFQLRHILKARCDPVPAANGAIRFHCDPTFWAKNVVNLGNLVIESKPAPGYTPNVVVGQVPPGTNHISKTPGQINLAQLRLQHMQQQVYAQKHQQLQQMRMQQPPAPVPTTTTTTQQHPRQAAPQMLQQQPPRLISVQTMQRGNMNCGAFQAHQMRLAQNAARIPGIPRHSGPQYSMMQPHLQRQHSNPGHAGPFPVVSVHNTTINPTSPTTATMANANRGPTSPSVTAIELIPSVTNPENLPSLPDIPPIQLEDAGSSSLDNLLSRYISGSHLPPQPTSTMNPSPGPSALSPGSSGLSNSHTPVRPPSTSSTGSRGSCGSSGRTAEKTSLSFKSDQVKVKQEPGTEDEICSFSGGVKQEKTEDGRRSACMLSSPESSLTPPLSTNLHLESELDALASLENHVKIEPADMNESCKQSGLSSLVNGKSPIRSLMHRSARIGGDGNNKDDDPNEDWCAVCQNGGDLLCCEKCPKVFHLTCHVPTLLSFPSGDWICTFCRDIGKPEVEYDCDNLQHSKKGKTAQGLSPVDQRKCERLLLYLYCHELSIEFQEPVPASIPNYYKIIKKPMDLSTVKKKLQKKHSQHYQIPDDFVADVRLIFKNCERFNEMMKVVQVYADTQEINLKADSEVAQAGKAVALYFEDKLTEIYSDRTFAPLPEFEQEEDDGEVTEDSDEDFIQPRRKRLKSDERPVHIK

What was measured:
Test in all cases: log2 fold change, soluble protein after heating vs DMSO (PISA); higher = thermal stabilisation; K562 cells, 10 uM, 30 min; active = over 0.2 and 3.5 SD of the protein, either way, in both replicates (recomputed)
[1] = compound: CC1=C(C=C(C=C1)NC(=O)C2=CC(=CC=C2)N(C)C)NC(=O)C3=CC=C(C=C3)O
Procedure, shortened: (§1)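 Values are thermal stability changes relative to control samples and are taken from duplicates. They are stated as log2 fold changes. Before quantification by TMTpro 16plex LC-MS/MS with equalised channel sums, K562 cells at 2×10^6 cells/mL were treated with 10 μM compound for 30 min, heated in aliquots for 3 min across 48°C-58°C, pooled, extracted in PBS with 0.5% NP-40 at 4°C, and centrifuged at 21,000xg for 90 min to give the soluble supernatant.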

[2] = compound: CC1=CC=C(C=C1)SC2=C3C=C(SC3=CN=C2)C(=O)N
Procedure, shortened: as §1

[3] = compound: CC1=NC(=CC=C1)C2=C(N=C(N2)C(C)(C)C)C3=CC4=NC=CN=C4C=C3
Procedure, shortened: as §1

[4] = compound: CCCS(=O)(=O)Nc1ccc(F)c(C(=O)c2c[nH]c3ncc(-c4ccc(Cl)cc4)cc23)c1F [vemurafenib]
Procedure, shortened: as §1

[5] = compound: CCCS(=O)(=O)Nc1ccc(F)c(C(=O)c2c[nH]c3ncc(Cl)cc23)c1F
Procedure, shortened: as §1

[6] = compound: CCCc1cc(C)[nH]c(=O)c1CNC(=O)c1cc(-c2ccnc(N3CCN(C)CC3)c2)cc2c1cnn2C(C)C
Procedure, shortened: as §1

[7] = compound: CCN(CC)Cc1ccc2cc(COC(=O)Nc3ccc(C(=O)NO)cc3)ccc2c1 [givinostat]
Procedure, shortened: as §1

[8] = compound: CCN(CCCOc1ccc2c(Nc3cc(CC(=O)Nc4cccc(F)c4)[nH]n3)ncnc2c1)CCOP(=O)(O)O [barasertib]
Procedure, shortened: as §1

[9] = compound: CC1=C(C=C(C=C1)NC(=O)C2=CC(=CC=C2)C(C)(C)C#N)NC3=CC4=C(C=C3)N=CN(C4=O)C
Procedure, shortened: as §1

[10] = compound: CCCCN(Cc1ccc(C(=O)NO)cc1)C(=O)Nc1ccccc1 [Nexturastat A]
Procedure, shortened: as §1

Measured: log2 fold change

TNIK isoform 3 (UniProt Q9UKE5)
inactive: [1] 0.087 | [2] -0.006 | [3] 0.004 | [4] -0.057 | [5] -0.002 | [6] 0.022 | [7] 0.038 | [8] -0.022

TRAPPC2 isoform 3 (UniProt P0DI81)
inactive: [1] -0.027 | [2] -0.116 | [4] 0.008 | [5] -0.031 | [6] 0.047 | [7] 0.018 | [8] 0.085

TNKS (UniProt O95271)
inactive: [2] -0.231 | [3] -0.527 | [5] 0.015

TREML2 (UniProt Q5T2D2)
inactive: [9] 0.048 | [3] 0.126 | [6] 0.005 | [7] 0.17 | [8] 0.078

Looked up one by one from above, two records:
TNIK isoform 3 (UniProt Q9UKE5)
inactive: [1] 0.087 | [2] -0.006 | [3] 0.004 | [4] -0.057 | [5] -0.002 | [6] 0.022 | [7] 0.038 | [8] -0.022

TRAPPC2 isoform 3 (UniProt P0DI81)
inactive: [1] -0.027 | [2] -0.116 | [4] 0.008 | [5] -0.031 | [6] 0.047 | [7] 0.018 | [8] 0.085

Remaining list, next part

TNXB isoform 4 (UniProt P22105)
inactive: [3] 0.17 | [6] 0.292

TRAPPC6A isoform 2 (UniProt O75865)
inactive: [2] -0.052 | [5] 0.067 | [6] -0.032 | [7] -0.003 | [8] 0.359

TRAF3 (UniProt Q13114)
inactive: [1] -0.171 | [4] -0.227

TRPS1 isoform 2 (UniProt Q9UHF7)
inactive: [7] 0.2

TRADD (UniProt Q15628)
inactive: [1] -0.065 | [10] 0.032 | [4] -0.029 | [6] -0.09 | [7] 0.083

TRIT1 (UniProt Q9H3H1)
inactive: [3] -0.039

TNK2 isoform 3 (UniProt Q07912)
inactive: [7] -0.017 | [8] 0.122

TRAF3IP1 (UniProt Q8TDR0)
inactive: [1] -0.095 | [3] -0.056 | [4] -0.002

TPRA1 (UniProt Q86W33)
inactive: [9] 0.158 | [10] -0.13 | [4] 0.003 | [6] -0.257 | [7] 0.287

TRIM65 (UniProt Q6PJ69)
inactive: [1] 0.07 | [3] 0.029 | [4] -0.164

TRPM4 (UniProt Q8TD43)
inactive: [9] -0.158 | [10] 0.285

TRPM7 (UniProt Q96QT4)
inactive: [1] -0.082 | [2] 0.067 | [3] 0.014 | [10] 0.069 | [4] 0.149 | [5] -0.037 | [6] 0.037 | [7] -0.032 | [8] -0.124

TRIM29 (UniProt Q14134)
inactive: [6] -0.118

TRMT5 (UniProt Q32P41)
inactive: [3] 0.12 | [10] 0.099 | [4] 0.128 | [7] -0.128 | [8] -0.055

TOR1AIP2 (UniProt Q9H496)
inactive: [1] -0.042 | [10] -0.11 | [6] -0.03 | [8] 0.17

TRMT2B (UniProt Q96GJ1)
inactive: [1] 0 | [2] -0.109 | [4] 0.015 | [5] -0.106 | [6] -0.096 | [7] -0.032 | [8] -0.199

TROAP (UniProt Q12815)
inactive: [1] -0.119 | [10] 0.117 | [8] 0.014

TRAM2 (UniProt Q15035)
inactive: [9] 0.122 | [2] 0.315 | [4] -0.076 | [5] 0.225 | [7] 0.155 | [8] -0.024

TRIM33 isoform 2 (UniProt Q9UPN9)
inactive: [9] 0.117 | [10] 0.032 | [6] 0.266

TOM1L2 (UniProt Q6ZVM7)
inactive: [9] -0.038 | [3] -0.132 | [10] -0.046 | [4] -0.008 | [7] 0.025

TRIM41 (UniProt Q8WV44)
inactive: [4] -0.183

TPD52 isoform 3 (UniProt P55327)
inactive: [8] 0

TNRC6A (UniProt Q8NDV7)
inactive: [6] -0.013

TRA2A (UniProt Q13595)
inactive: [8] 0.029

TRIP12 isoform 3 (UniProt Q14669)
inactive: [1] -0.045 | [3] 0.092 | [10] -0.09 | [4] -0.064 | [6] -0.165 | [8] -0.038
